Source: US9592186B2, “Topical compositions and methods for skin lightening” (Avon Products, Inc., priority 2014, dated 2017)
Structures can show the parent of a compound that is named as a salt.

Tested on: Human epidermal melanocytes from dark-pigmented skin
Test: Melanin absorbance (pigmentation) in cultured human epidermal melanocytes after 8 days of incubation
Format: cell-based
Description: The Compound of Formula (II) was examined for its ability to reduce pigmentation in vitro in human melanocytes. Human epidermal melanocytes from dark-pigmented skin were seeded in 6-well dishes and grown using commercially available Medium 254, a sterile, liquid medium prepared with 200 μM calcium chloride for the culture of human epidermal melanocytes, supplemented with 1% Penicillin/Streptomycin and 1% Human Melanocyte Growth Supplement. Corresponding controls were maintained without histamine, Diphenylhydramine HCl and Compound II. Four replicates were tested for each combination. After 8 days of incubation, melanin was collected and processed by washing the wells with IX phosphate-buffered saline (PBS), followed by addition of 200 μL of 2M NaOH to three of the four replicates, which are then scraped, pooled and boiled at 80° C. for an hour. Melanin absorption was then measured at 405 nm using a spectrophotometer.
Results are summarized in Table 1 below as percent change of melanin absorbance relative to vehicle control. A larger (positive or negative) percent change indicates a larger increase or reduction in melanin.

## CN(C)CCOC(c1ccccc1)c1ccccc1 [Diphenhydramine HCl]
5 μM, summary of Table 1
  effect on pigmentation (in words): reduces pigmentation
Concentration 5 μM, 8 days incubation, absorption at 405 nm
  % Pigmentation (percent change of melanin absorbance relative to vehicle control): −38.75%
